Data reported in US20240239762A1, “NOVEL HETEROCYCLIC COMPOUNDS” (FLORATEK PHARMA S.A., priority 2021, published 2024).
At least one compound was matched to its structure with a doubt left.

System: C. elegans
Assay: Lifespan assay on the Automated Lifespan Machine
Format: in vivo, Caenorhabditis elegans
Conditions: 50 μM; 95th percentile of lifespans
Excerpt: To prevent chemical modification or metabolism of the test article by the food bacteria, worms were fed on a lawn of UV-killed bacteria (UV-i bacteria). An overnight culture of E. coli strain WP-2 was pelleted, washed, filtered, and irradiated. A suspension of UV-i bacteria was spotted on NGM agar containing Streptomycin to inhibit the growth of contaminating bacteria. The quantity and distribution of food bacteria were calibrated to ensure adequate access to food for the duration of assay while maintaining visibility of the worms.
Test compounds were soluble in 100% DMSO. The compounds were dissolved in a working solution and then combined directly with the food bacteria before seeding on agar plates. […]
The ALM used by InVivoBiosystems is based on the Caenorhabditis elegans lifespan machine published by Stroustrup et. […] The scanner unit consisted of a modified EPSON V850 and images were processed and analyzed using the ALM software. […]
Time of death calls exported from the ALM software was analyzed and plotted using the Lifelines software package developed by Cam Davidson-Pilon et. al [Davidson-Pilon, C et. al. Lifelines survival analysis package. […]
Worm movement was tracked from the images acquired by the ALM during the lifespan assay. Worm size and movement features were extracted and analyzed using custom software.

CO[C@H]1C[C@@H]2CC[C@@H](C)[C@@](O)(O2)C(=O)C(=O)N2CCCC[C@H]2C(=O)O[C@H]([C@H](C)C[C@@H]2CC[C@@H](O)[C@H](OC)C2)CC(=O)[C@H](C)/C=C(\C)[C@@H](O)[C@@H](OC)C(=O)[C@H](C)C[C@H](C)/C=C/C=C/C=C/1C [Rapamycin, reference compound]
Effect on maximum lifespan: did not increase maximum lifespan
